Source: ChEMBL document CHEMBL3988442, “University of Dundee, Small-Polar-MMV Screening Library” (2021).

Sequences of proteins named here, by UniProt entry; tags and fusion partners are left off. Residues count along the entry.
UniProt Q8IDJ8, 1-583: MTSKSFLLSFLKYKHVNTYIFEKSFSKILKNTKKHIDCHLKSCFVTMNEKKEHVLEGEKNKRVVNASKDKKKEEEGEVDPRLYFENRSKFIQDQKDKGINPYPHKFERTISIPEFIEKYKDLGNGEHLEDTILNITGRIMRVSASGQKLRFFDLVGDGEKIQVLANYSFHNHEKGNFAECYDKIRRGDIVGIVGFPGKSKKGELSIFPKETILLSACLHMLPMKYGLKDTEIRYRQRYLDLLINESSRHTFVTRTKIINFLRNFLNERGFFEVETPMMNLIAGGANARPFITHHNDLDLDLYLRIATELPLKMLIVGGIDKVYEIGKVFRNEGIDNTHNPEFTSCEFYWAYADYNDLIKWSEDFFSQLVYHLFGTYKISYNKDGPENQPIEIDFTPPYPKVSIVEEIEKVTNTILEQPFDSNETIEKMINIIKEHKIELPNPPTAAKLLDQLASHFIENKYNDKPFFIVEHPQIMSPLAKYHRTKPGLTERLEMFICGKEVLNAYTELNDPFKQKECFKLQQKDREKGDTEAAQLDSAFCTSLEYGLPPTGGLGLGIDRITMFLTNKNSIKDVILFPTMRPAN
UniProt P9WFT3, whole entry: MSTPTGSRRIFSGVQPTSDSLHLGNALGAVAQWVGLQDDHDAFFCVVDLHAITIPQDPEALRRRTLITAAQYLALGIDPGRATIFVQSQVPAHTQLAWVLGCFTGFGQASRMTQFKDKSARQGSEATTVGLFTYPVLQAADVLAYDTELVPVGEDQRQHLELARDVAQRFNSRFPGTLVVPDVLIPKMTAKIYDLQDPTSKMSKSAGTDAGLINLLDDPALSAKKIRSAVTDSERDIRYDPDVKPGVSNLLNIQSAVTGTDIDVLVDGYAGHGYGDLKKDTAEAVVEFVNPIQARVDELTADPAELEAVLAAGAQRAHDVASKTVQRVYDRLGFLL
UniProt P9WPC5, whole entry: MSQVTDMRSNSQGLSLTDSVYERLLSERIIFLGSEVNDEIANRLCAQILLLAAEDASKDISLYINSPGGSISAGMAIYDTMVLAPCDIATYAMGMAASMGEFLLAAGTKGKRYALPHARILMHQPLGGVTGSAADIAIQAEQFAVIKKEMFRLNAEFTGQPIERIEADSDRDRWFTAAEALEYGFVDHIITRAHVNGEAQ
UniProt P9WPC3, whole entry partner: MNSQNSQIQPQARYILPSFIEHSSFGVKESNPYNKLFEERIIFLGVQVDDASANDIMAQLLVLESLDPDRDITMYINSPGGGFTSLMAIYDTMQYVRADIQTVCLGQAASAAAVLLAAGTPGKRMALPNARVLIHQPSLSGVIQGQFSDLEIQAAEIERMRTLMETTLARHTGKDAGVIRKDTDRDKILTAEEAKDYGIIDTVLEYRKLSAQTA
UniProt Q4DA54, 1-478: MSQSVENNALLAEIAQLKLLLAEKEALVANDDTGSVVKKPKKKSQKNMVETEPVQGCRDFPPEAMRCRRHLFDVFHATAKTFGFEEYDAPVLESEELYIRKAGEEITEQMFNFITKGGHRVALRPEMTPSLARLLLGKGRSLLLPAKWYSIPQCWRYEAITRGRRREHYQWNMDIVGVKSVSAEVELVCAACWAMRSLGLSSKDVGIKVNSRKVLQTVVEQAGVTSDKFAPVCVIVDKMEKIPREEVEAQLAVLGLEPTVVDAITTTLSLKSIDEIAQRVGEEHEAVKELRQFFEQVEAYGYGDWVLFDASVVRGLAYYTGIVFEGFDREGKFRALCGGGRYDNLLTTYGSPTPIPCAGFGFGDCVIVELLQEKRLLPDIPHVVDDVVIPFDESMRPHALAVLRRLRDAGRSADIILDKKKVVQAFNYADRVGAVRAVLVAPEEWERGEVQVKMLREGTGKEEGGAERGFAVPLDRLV

A: 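Enzyme assay of the cytosolic lysyl-tRNA synthetase in 384-well plates, read by luminescence. Target: Lysine-tRNA ligase, Plasmodium falciparum 3D7 (UniProt Q8IDJ8). Compounds at 30 µM. Direction is inferred from only a few compounds that gave an IC50; most scored high, so higher reads as stronger inhibition. Size under these conditions: about 69,000 compounds, about 49 of them at 50% or above in at least one test.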
B: 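Enzyme assay of tryptophanyl-tRNA synthetase; the read-out is not stated. Target: Tryptophan-tRNA ligase, Mycobacterium tuberculosis (UniProt P9WFT3). Compounds at 10 µM. Higher most likely means stronger inhibition; the record gives no direction and few retests gave an IC50. About 65,000 compounds were tested under these conditions; 0.098% (about 64) showed 50% or more at least once.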
C: 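Protease assay of ClpP1P2, read by the AMC dye that it sets free. Target: ClpP1P2, Mycobacterium tuberculosis (UniProt P9WPC5 and UniProt P9WPC3). Tested at 50 µM. Higher reads as stronger inhibition, judged from the few compounds that gave an IC50. Most other retested compounds had strongly negative values. About 69,000 compounds were tested under these conditions; 0.015% (about 10) showed 50% or more at least once.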
D: 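Enzyme assay of histidyl-tRNA synthetase; the read-out is not stated. Target: Histidine-tRNA ligase, Trypanosoma cruzi CL Brener (UniProt Q4DA54). Tested at 30 µM. Direction is inferred from retests: higher values go with stronger inhibition. About 69,000 compounds were tested under these conditions; 0.045% (about 31) showed 50% or more at least once.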

The filed quantity is “Percent Effect” (%).
How 0% and 100% were set is not recorded. Most values in the screen are low, and negative values occur.
Compounds were drawn at random from those tested, without regard to their results.
A dash means the value is not listed here; it may have been measured.

compound,A,B,C,D
CNC(=O)[C@H]1C[C@@H]2CN(S(=O)(=O)c3cccc(C)c3)C[C@@H]2N1C,3.92,-3.417,-1.915,5.882
CCS(=O)(=O)NCCNCc1ccc(Cl)c2cccnc12,-2.211,-0.8189,-3.687,3.191
COCCCNC(=O)N1CCN(C(=O)c2nsc3ccc(C)cc23)CC1,2.226,2.386,-15.03,0
c1csc(-c2noc(CC3CCCO3)n2)c1 (centres unmarked),-2.286,5.897,-9.401,-1.657
COCc1csc(NC(=O)NCc2ccsc2)n1,6.174,5.623,2.78,3.03
CN(CC(N)=O)CC(=O)N1CC=C(c2ccccc2)CC1,2.368,-5.845,-8.226,4.571
N#Cc1nccnc1N1CCC(Cc2ccccc2)C1 (centres unmarked),0.8747,3.49,-14.67,10.98
CC(C)N1CC(C(=O)NCCOc2ccc3c(c2)OCO3)CC1=O (centres unmarked),3.256,-2.437,14.21,-0.7576
Cc1nc(CC(=O)N2CCC(c3ccn4nccc4n3)CC2)cs1,-0.8038,-9.302,-21.84,9.429
Cc1nc(C(=O)Nc2cc(N3CCNC3=O)ccc2Cl)cs1,1.504,-2.408,1.213,4.813
O=C(NCc1nnc2n1CCCCC2)N1CCc2ccccc2C1,-0.8575,0.2839,-16.99,9.972
O=S1(=O)NC(c2ccnc(N3CCOCC3)n2)=Nc2ccccc21,0.6377,-2.044,-4.57,4.215
CC(C)c1nncn1CCNC(=O)c1ccc(Cl)cc1O,1.533,1.489,2.405,2.97
Cc1oncc1C(=O)N1CC[C@H]2[C@H](CO[C@@H]2CNS(C)(=O)=O)C1,9.732,1.302,-3.096,6.863
Cc1cc(C(=O)NCc2cccnc2N2CCc3ccccc3C2)[nH]n1,1.287,-1.264,-3.308,6.383
O=C(c1ccc2nncn2c1)N1CCCCC1Cn1cccn1 (centres unmarked),-0.006707,7.33,-2.942,5.085
CCc1cc(CNC(=O)Nc2cc(F)cc(N3CCCC3)c2)on1,3.661,2.709,-27.9,0
COCC(=O)N1CCC2(COCc3cnc(NCc4ccco4)nc32)C1 (centres unmarked),1.227,-9.528,-7.545,7.477
COc1ccccc1OCCN1CCCCC1Cn1cncn1 (centres unmarked),-0.8822,18.22,-14.81,4.36
CN1C(=N)NC(=O)/C1=C\c1ccc(-c2ccc(F)cc2)o1,3.443,-0.6135,8.904,2.439
CCCc1cc(NC2CCc3nc(C)nn3C2)n2ncnc2n1 (centres unmarked),6.202,3.599,-7.912,6.748
O=C(NCC1CC1)C12CC(CN1Cc1nccs1)C2,8.114,-1.402,-0.2217,3.797
CCc1cc(N2CCC(NCCc3ccc(C)o3)CC2)nc(C)n1,3.029,2.295,-13.46,15.42
O=C(CSc1nnc(N2CCCC2)s1)NC(=O)Nc1ccccc1,0,1.223,12.44,9.278
Fc1ccc(CN2CCCN(Cc3cscn3)CC2)cc1,9.716,-3.206,22.75,4.151
CCNC(=O)[C@@H]1C[C@@H](N)CN1C(=O)c1cc2ccccc2[nH]1,7.268,2.177,-4.945,7.143
Cc1cnc(Nc2nccnc2C2CCN(C)CC2)s1,-3.277,-0.8811,4.04,3.825
CC(C)(C)OC(=O)N[C@@H]1C[C@@H](O)CN(C(=O)c2cccc(F)c2)C[C@H]1O,-0.4864,-4.486,2.144,10.08
Cn1ncc2ccc(C3CCCN(C(=O)Cc4cccs4)C3)nc21 (centres unmarked),0.3559,10.94,-7.171,7.28
CCOCC(=O)N1CCCn2c(CN3CCOCC3)nnc2C1,1.664,3.239,0.3815,10.05
CC(=O)N1CCC(Cc2ccc(-c3ccnn3C)nc2)CC1,0.7333,7.637,8.928,3.39
O=C1CN(C(=O)[C@H]2CC[C@]3(CC2)CNC(=O)c2ccccc2O3)CCN1,0.1367,-8.784,-3.263,10.65
CCN(Cc1ccccc1)S(=O)(=O)C1CCS(=O)(=O)CC1,9.602,3.083,7.705,7.772
COCC1CCN(c2cc(C3CN(C)CCO3)nc(C)n2)CC1 (centres unmarked),1.037,-2.115,-0.9316,3.825
Cc1nccn1-c1cc(CNC(=O)CCS(=O)(=O)C2CCCC2)ccn1,-2.447,11.96,-19.18,1.156
OC1(CN2CCCC2)COCCN(c2noc(-c3ccccc3)n2)C1 (centres unmarked),2.937,-0.3734,-14.21,5.882
COc1nn(C)c2c1CCCN(C(=O)c1cnccn1)C2,4.756,-,-4.338,7.407
CC(C)NC(=O)N1CCN(S(C)(=O)=O)CC2(CNC(=O)C2)C1 (centres unmarked),3.427,0.9682,0.1597,0
CC(C)(C)OC(=O)NCCC(=O)NCC(O)c1cccc(F)c1 (centres unmarked),-0.05987,-0.8081,-19.61,4.082
CC(NC(N)=O)C(=O)N(C)CCCc1cc(-c2ccccc2)no1 (centres unmarked),-3.637,-3.013,-9.346,-1.916
CC(=O)N1CCCC1c1nccnc1Nc1cccc(C)n1 (centres unmarked),5.16,-1.41,7.093,-0.5464
COCCN(Cc1ccco1)Cc1nc(-c2ccccc2)no1,3.801,3.483,10.05,10.78
CN1CCC(Cc2cc(Nc3ncccn3)ncn2)CC1,4.754,-1.923,2.286,5.946
CN(c1ncnc2ccccc12)C1CCCN(c2cccnn2)C1 (centres unmarked),3.717,-3.681,-7.566,31.96
CN(C)C(=O)N1CCC2(CC(=O)N(c3cccc(C#N)c3)C2)C1 (centres unmarked),6.262,-1.918,-0.6969,9.091
Cc1c(S(=O)(=O)N(CCc2ccccc2)Cc2ccn(C)n2)cnn1C,1.882,0.1295,-8.832,3.478
Cc1nn(C)c(C)c1C1CCCN1CC(=O)NCc1ccccn1 (centres unmarked),0.4408,1.183,-16.66,2.006

Some entries from above, unchanged:

compound	A	B	C	D
COCC(=O)N1CCC2(COCc3cnc(NCc4ccco4)nc32)C1 (centres unmarked)	1.227	-9.528	-7.545	7.477
CN(C)C(=O)N1CCC2(CC(=O)N(c3cccc(C#N)c3)C2)C1 (centres unmarked)	6.262	-1.918	-0.6969	9.091
Cc1oncc1C(=O)N1CC[C@H]2[C@H](CO[C@@H]2CNS(C)(=O)=O)C1	9.732	1.302	-3.096	6.863
Cc1nccn1-c1cc(CNC(=O)CCS(=O)(=O)C2CCCC2)ccn1	-2.447	11.96	-19.18	1.156